PubChem BioAssay AID1259266 – Sanger Institute | 2017

Assay: 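Find knock-downs that kill LS123 cells or act with anchor drugs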 (primary screen)
Cells: LS123 human colorectal cancer cells
Reagent: siRNA pool against human genes
Challenge: anchor drugs BYL719 (1 µM), cetuximab (5 µg/ml) or trametinib (10 nM), each chosen to barely slow growth alone; DMSO vehicle as the drug-free arm
Measured: 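Viability relative to non-targeting control pools, replicate mean, with a robust z-score for knock-down alone and synergy scores for each anchor drug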
Reading the numbers: robust z-score, knock-down alone: higher = more cells surviving after knock-down; viability, knock-down alone: higher = more viable cells; synergy score with trametinib and synergy score with BYL719: higher = stronger synthetic lethality with drug
Hit rule: 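a knock-down counts as essential if its z-score without drug is under -3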
Meaning of the calls: active = essential (knock-down alone cuts viability); inactive = no change
The deposit covers 794 reagents; below is an unselected part. 16 of them (2%) were called active. 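Calls reflect knock-down alone, not drug synergy; viability seems capped at 1 and z-scores at 0.585.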 Unmarked entries are inactive. Further read-outs or replicates are left out here. Not given: the amount of reagent, the time to read-out.

gene	robust z-score, knock-down alone	viability, knock-down alone (fraction of control)	synergy score with trametinib	synergy score with BYL719
PKLR (pyruvate kinase L/R)	0.585	1	-0.0652	-0.159
PPP2R1A (protein phosphatase 2 scaffold subunit Aalpha)	0.585	1	-0.00589	-0.111
HIPK4 (homeodomain interacting protein kinase 4)	0.585	1	-0.115	-0.159
PDIK1L (PDLIM1 interacting kinase 1 like)	0.585	1	-0.0848	-0.159
TGFBR1 (transforming growth factor beta receptor 1)	0.089	0.971	-0.0445	-0.147
PKN3 (protein kinase N3)	0.585	1	-0.0243	-0.019
SGK1 (serum/glucocorticoid regulated kinase 1)	0.585	1	-0.12	-0.0981
RAD21 (RAD21 cohesin complex component)	-1.43	0.881	-0.0639	-0.105
PRP4K (pre-mRNA processing factor kinase PRP4K)	-0.614	0.929	-0.0882	-0.0289
BMPR2 (bone morphogenetic protein receptor type 2)	0.0745	0.97	-0.0296	-0.034
DYRK1A	0.585	1	-0.167	-0.151
MAPK4 (mitogen-activated protein kinase 4)	0.585	1	-0.0387	-0.0255
WNK3 (WNK lysine deficient protein kinase 3)	0.585	1	0.0147	-0.114
PAPSS1 (3'-phosphoadenosine 5'-phosphosulfate synthase 1)	0.585	1	-0.179	-0.159
TCF12 (transcription factor 12)	-0.328	0.946	0.0107	-0.0781
PDGFRB (platelet derived growth factor receptor beta)	-2.54	0.815	-0.0508	-0.0631
PRKAB1 (protein kinase AMP-activated non-catalytic subunit beta 1)	-0.843	0.915	0.0324	0.0534
SRPK3 (SRSF protein kinase 3)	0.585	1	-0.125	-0.159
BMPR1A (bone morphogenetic protein receptor type 1A)	0.275	0.982	-0.199	-0.175
CAMK2G (calcium/calmodulin dependent protein kinase II gamma)	0.231	0.979	-0.0857	-0.072

2 neighbouring records already listed, quoted:
gene	robust z-score, knock-down alone	viability, knock-down alone (fraction of control)	synergy score with trametinib	synergy score with BYL719
SRPK3 (SRSF protein kinase 3)	0.585	1	-0.125	-0.159
BMPR1A (bone morphogenetic protein receptor type 1A)	0.275	0.982	-0.199	-0.175
